Measurements reported in PubChem BioAssay AID662 (National Center for Advancing Translational Sciences (NCATS), 2007).
The other results are listed elsewhere or left out. The main result of the screen is listed elsewhere. These columns were measured beside it and carry no call. Most of these compounds were active or inconclusive in the main read-out, so they are no random draw. The note in brackets gives the kind of curve behind each potency; many fits are weak.

Test: Cell signaling CRE-BLA (Fsk stim)
Conditions: CHO CRE-bla reporter (cAMP response element driving beta-lactamase), forskolin EC10, beta-lactamase ratio; measured here: 460 nm blue channel
How it was run: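 CRE-bla CHO cells stimulated with EC10 NKH 477 (water-soluble forskolin) and compound titrations, 3 h at 37C; beta-lactamase read with CCF4 after 2 h at room temperature. Activity from 460/530 nm emission ratio, AC50 values for positive or negative modulation.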

SMILES	AC50
O=C(Cc1cccs1)N1CCCC(c2nc3c(nnn3Cc3cccc(Cl)c3)c(=O)[nH]2)C1 (stereo not drawn)	15.8 µM [rising, single point]
c1ccc(-c2nc3cc(Oc4ccc5oc(-c6ccccn6)nc5c4)ccc3o2)nc1	12.6 µM [rising, single point]
O=C(CN1CCN(S(=O)(=O)c2ccc(F)cc2)CC1)Nc1ccc2c(c1)OCO2	0.1 µM [falling, full curve]
CC1(C)CC(=O)C2=C(C1)N(CCN1CCOCC1)C1=C(C(=O)CC(C)(C)C1)C2c1cccc(F)c1	10 µM [rising, partial curve]
c1cncc(-c2nccc(-n3ccnc3)n2)c1	6.31 µM [rising, partial curve]
COCCn1nnnc1C(c1ccc(OC)c(OC)c1)N1CCN(c2nc3ccccc3s2)CC1 (stereo not drawn)	1.26 µM [rising, partial curve]
N#CCCS(=O)(=O)c1nnnn1-c1ccccc1	2 µM [falling, full curve]
Cc1oc2ccc(OC(=O)N3CCOCC3)cc2c1C(=O)OC(C)C	12.6 µM [rising, single point]
CCCCCOC(=O)CSc1nnc(-c2ccccc2)c(=O)[nH]1	0.0794 µM [falling, full curve]
O=C1CC(N2CCN(C/C=C/c3ccccc3)CC2)C(=O)N1Cc1ccc(N2CCCC2=O)cc1 (stereo not drawn)	0.794 µM [rising, full curve, poor fit]
Cc1noc(C)c1-c1ccc2ncnc(NCc3cccnc3)c2c1	12.6 µM [rising, partial curve]
COc1ccc(NC(=O)C(C)NS(=O)(=O)c2ccc(NC(C)=O)cc2)cc1Cl (stereo not drawn)	0.398 µM [falling, single point]
CC1CCCC(C)N1C(=O)Cn1c(SCC(=O)NCc2ccc3c(c2)OCO3)nc2ccccc21 (stereo not drawn)	0.0794 µM [falling, partial curve, poor fit]
COc1ncnc2c1oc1nc(C(C)C)c3c(c12)CC(C)(C)OC3	0.398 µM [rising, full curve]
O=c1c(-c2cc(F)cc(F)c2)nc2cncnc2n1Cc1ccccc1	25.1 µM [rising, single point]
O=c1c2cc(N3CCOCC3)ccc2[nH]c(=S)n1CC1CCCO1 (stereo not drawn)	10 µM [rising, single point]
COc1cc2c(C(=O)NCCCN3CCN(c4cccc(Cl)c4)CC3)cn(C)c(=O)c2cc1OC	2.51 µM [rising, full curve]
CCOC(=O)CSC1=C(C#N)C(c2ccccc2C)C2=C(CCCC2=O)N1 (stereo not drawn)	0.316 µM [rising, full curve, poor fit]
COc1ccc2nc(C)cc(Nc3ccc(N4CCOCC4)cc3)c2c1	15.8 µM [rising, partial curve]
C=CCNc1nc(-c2sc(NC(=O)CC)nc2C)cs1	1.58 µM [rising, single point]
Cc1cc(N2CCC(C)CC2)nc(-n2nc(C)cc2C)n1	12.6 µM [rising, single point]
CC1=NCCN1S(=O)(=O)c1cc(Cl)ccc1Cl	0.0501 µM [falling, full curve]
COc1cc(C(=O)Nc2cc(-c3ccccc3)[nH]n2)cc(OC)c1OC	0.398 µM [rising, full curve]

SMILES	AC50
COc1cc(-c2noc(C3CCCN(S(=O)(=O)c4cccc(Cl)c4)C3)n2)cc(OC)c1OC (stereo not drawn)	0.501 µM [rising, full curve]
c1ccc(-c2cnc(-c3cccnc3)o2)cc1	15.8 µM [rising, single point]
CCCCOC(=O)C1=C(C)Nc2ncnn2C1c1cc(OC)c(OC)cc1OC (stereo not drawn)	10 µM [rising, partial curve]
CCc1ccc(C2C(C#N)=C(N)SC(N)=C2C#N)s1	25.1 µM [falling, single point]
COC(=O)c1ccccc1S(=O)(=O)N(Cc1cc2cc3c(cc2[nH]c1=O)OCO3)C1CCCCC1	15.8 µM [rising, partial curve]
Cn1cc(S(=O)(=O)Nc2ccc(F)cc2F)c(=O)n(C)c1=O	10 µM [rising, single point]
O=C(COC(=O)C1CCCN1C(=O)c1cccs1)c1ccccc1 (stereo not drawn)	0.01 µM [falling, partial curve, poor fit]
CCOc1ccc(CCNC(=O)CCN2C(=O)COc3ccccc32)cc1OCC	12.6 µM [rising, single point]
c1cc(-c2nc3cc(Oc4ccc5oc(-c6ccncc6)nc5c4)ccc3o2)ccn1	2.51 µM [rising, partial curve]
O=C(CSc1nnc(-c2cccnc2)n1-c1ccccc1)Nc1ccccn1	10 µM [rising, single point]
COC(=O)c1cc2ccccc2c(=O)s1	25.1 µM [rising, single point]
COc1ccc(NC(=O)CN2CCN(CC(=O)Nc3ccccc3Cl)CC2)cc1Cl	0.2 µM [rising, single point]
Cc1cc(C(=O)CN2C(=O)NC(c3ccccc3)(c3ccccc3)C2=O)c(C)n1Cc1ccco1	10 µM [falling, single point]
COc1cccc(NC(=O)Cc2nnc(SCC(=O)c3ccccc3)n2C)c1	3.16 µM [falling, full curve]
Cc1occc1C(=O)NCc1cccs1	3.98 µM [rising, single point]
COCCCNc1oc(-c2ccccc2OC)nc1C#N	0.794 µM [rising, single point]
CCNc1ncc2nc(-c3cc(F)cc(F)c3)c(=O)n(C)c2n1	2.51 µM [rising, full curve]
CCN(CC)C(=O)CSc1ncnc2c(-c3cccs3)nsc12	25.1 µM [rising, single point]
CNc1sc(C(=O)c2cccs2)c(N)c1-c1nc2ccccc2s1	12.6 µM [falling, partial curve]
O=C(c1ccco1)N1CCC[C@@]2(CCN(C(c3ccccc3)c3ccccc3)C2)C1	5.01 µM [falling, single point]
Cc1ccsc1-c1nc(CSCC(=O)NCCN2CCCC2)c(C)o1	0.0631 µM [falling, partial curve, poor fit]
COCCn1c(SCc2ccc(C(=O)OC)o2)nc2cc(Cl)ccc2c1=O	5.01 µM [rising, partial curve]
COC(=O)c1[nH]c2ccc(C)cc2c1NC(=O)C1=COCCO1	25.1 µM [rising, single point]

Not a retest: entries from further up.
SMILES	AC50
COC(=O)c1ccccc1S(=O)(=O)N(Cc1cc2cc3c(cc2[nH]c1=O)OCO3)C1CCCCC1	15.8 µM [rising, partial curve]
Cn1cc(S(=O)(=O)Nc2ccc(F)cc2F)c(=O)n(C)c1=O	10 µM [rising, single point]
O=C(COC(=O)C1CCCN1C(=O)c1cccs1)c1ccccc1 (stereo not drawn)	0.01 µM [falling, partial curve, poor fit]
CCOc1ccc(CCNC(=O)CCN2C(=O)COc3ccccc32)cc1OCC	12.6 µM [rising, single point]
c1cc(-c2nc3cc(Oc4ccc5oc(-c6ccncc6)nc5c4)ccc3o2)ccn1	2.51 µM [rising, partial curve]
O=C(CSc1nnc(-c2cccnc2)n1-c1ccccc1)Nc1ccccn1	10 µM [rising, single point]
COC(=O)c1cc2ccccc2c(=O)s1	25.1 µM [rising, single point]
COc1ccc(NC(=O)CN2CCN(CC(=O)Nc3ccccc3Cl)CC2)cc1Cl	0.2 µM [rising, single point]
Cc1cc(C(=O)CN2C(=O)NC(c3ccccc3)(c3ccccc3)C2=O)c(C)n1Cc1ccco1	10 µM [falling, single point]
COc1cccc(NC(=O)Cc2nnc(SCC(=O)c3ccccc3)n2C)c1	3.16 µM [falling, full curve]
Cc1occc1C(=O)NCc1cccs1	3.98 µM [rising, single point]
COCCCNc1oc(-c2ccccc2OC)nc1C#N	0.794 µM [rising, single point]
CCNc1ncc2nc(-c3cc(F)cc(F)c3)c(=O)n(C)c2n1	2.51 µM [rising, full curve]
CCN(CC)C(=O)CSc1ncnc2c(-c3cccs3)nsc12	25.1 µM [rising, single point]
CNc1sc(C(=O)c2cccs2)c(N)c1-c1nc2ccccc2s1	12.6 µM [falling, partial curve]

Additional records follow:

SMILES	AC50
CCOC(=O)c1cc(C#N)c(SCC(=O)c2cc(C#N)c(SC)nc2C)nc1C	2 µM [rising, single point]
CCN1CCN(C(c2cccs2)C(C)NC(=O)c2ccco2)CC1 (stereo not drawn)	1 µM [rising, partial curve]
C/C(N)=C(/C#N)C(=O)CSc1n[nH]c(-c2ccccc2Br)n1	0.631 µM [falling, full curve, poor fit]
Cc1ccc(-c2c(C#N)c(N)nc3c2CCCCCC3)o1	2.51 µM [rising, full curve, poor fit]
CCn1c(SCC(=O)Nc2ccc(C(C)=O)cc2)nc2ccccc21	10 µM [rising, single point]
CCOC(=O)C1CCN(Cc2cn[nH]c2-c2ccc(C)cc2)CC1	5.01 µM [falling, single point]
COc1ccc(C2NC(=O)NC(C)=C2C(=O)Nc2cccc(C)c2C)cc1 (stereo not drawn)	7.94 µM [rising, partial curve]
Nc1ccccc1NC(=O)c1ccccc1N	0.00316 µM [falling, full curve, poor fit]
Cc1c2c(nc3ccccc13)-c1cccc(=O)n1C2	2.51 µM [rising, full curve]
CCCCOc1ccccc1NC(=O)CC1Nc2ccccc2NC1=O (stereo not drawn)	2.51 µM [rising, partial curve]
CN(C)c1ncc2ncc(=O)n(C[C@H]3CCCO3)c2n1	12.6 µM [rising, partial curve]
COc1nc(-c2ccc(C)cc2)ccc1-c1noc(-c2cccnc2)n1	0.794 µM [falling, single point]
Cc1nc(=O)c(-c2ccccc2)c(C)n1-c1ccc(C(=O)O)cc1	0.631 µM [falling, full curve]
Cc1cnc(CNc2ncnc3ccc(-c4c(C)noc4C)cc23)cn1	10 µM [rising, partial curve]
O=C(NCc1ccco1)C1CCCN(S(=O)(=O)c2cccc3nonc23)C1 (stereo not drawn)	10 µM [falling, single point]
O=c1oc(-c2cccs2)nc2c1cnn2-c1ccccc1	12.6 µM [rising, single point]
COc1ccc(Cl)cc1NC(=O)COc1cccc(-n2cnnn2)c1	12.6 µM [rising, partial curve]
COCCNc1ncnc2ccc(-c3ccccc3OC)cc12	12.6 µM [rising, single point]
CCCCCNC(=O)CCCCn1c(=O)[nH]c2cc(OCC)c(OCC)cc2c1=O	5.01 µM [falling, partial curve]
COc1cccc(Nc2ncc3nc(CCc4ccccc4)c(=O)n(C)c3n2)c1	15.8 µM [rising, partial curve]
O=C(Nc1nc2ccc(Cl)cc2s1)c1ccc(Br)o1	1 µM [falling, single point]
CCOC(=O)c1c(NC(=O)CSc2n[nH]c(-c3ccco3)n2)sc(C)c1C	0.0501 µM [rising, full curve]
